PubChem BioAssay AID1224826 – NIAID – 2016
Test: 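Regulators of Tlr4 signalling leading to Tnf-alpha expression in macrophages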 (primary screen). Cells: RAW264.7 G9 macrophages from mouse bearing reporters for p65 (GFP) and the Tnf promoter (mCherry). Reagents: siRNA pool against mouse genes, 100 nM. Timing: 16 h of LPS stimulation, after 2 days of siRNA transfection. Treatment: bacterial lipopolysaccharide (Salmonella minnesota R595), 10 ng/ml. Measurement: 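Nuclear mCherry signal of the Tnf promoter reporter measured by imaging after background removal, scaled to each plate median and turned into robust z-scores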. Scale: Tnf reporter robust z-score: higher = stronger Tnf promoter reporter signal after LPS; Tnf reporter intensity: higher = stronger Tnf promoter reporter signal. Call rule: 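Called active when robust z-score is at most -1.3, matching the median of the Tlr4 knock-down control, or over 3; control wells and wells with under 50 cells never active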. Meaning of the calls: active = Tnf reporter clearly lowered or raised; inactive = no clear change in Tnf reporter.
In all, the deposit lists about 17,000 reagents; below is a random part of them. Of all reagents, about 1,110 (6.6%) are marked active. 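Active means lowered or raised reporter signal; replicate intensities are raw and not normalised per plate.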 Unmarked entries are inactive. Some reagents were tested in more than one well and are listed for each. Not all columns of the deposit are shown. Reagent sequences are not shown.

| gene knocked down | Tnf reporter robust z-score | fewer than 50 cells in well | Tnf reporter intensity, replicate 1 |
| --- | --- | --- | --- |
| Ube4a (ubiquitination factor E4A) | 1.78 | enough cells in well | 386 |
| Fan1 (FANCD2/FANCI-associated nuclease 1) | 1.89 | enough cells in well | 277 |
| Uxs1 (UDP-glucuronate decarboxylase 1) | -0.18 | enough cells in well | 120 |
| Gpr84 (G protein-coupled receptor 84) | -0.47 | enough cells in well | 172 |
| Mark2 (MAP/microtubule affinity regulating kinase 2) | 1.91 | enough cells in well | 311 |
| Cish (cytokine inducible SH2-containing protein) | -0.97 | enough cells in well | 156 |
| Treml6 (triggering receptor expressed on myeloid cells-like 6) | 1.02 | enough cells in well | 290 |
| Cdc42 (cell division cycle 42) | 0.72 | enough cells in well | 269 |
| Or1e34 (olfactory receptor family 1 subfamily E member 34) | -0.91 | enough cells in well | 130 |
| Pop4 | -0.59 | enough cells in well | 219 |
| Plpbp (pyridoxal phosphate binding protein) | 1.85 | enough cells in well | 233 |
| Wnt3a (WNT family member 3A) | -0.68 | enough cells in well | 184 |

The list goes on, starting with the last 2 of the part before.
| gene knocked down | Tnf reporter robust z-score | fewer than 50 cells in well | Tnf reporter intensity, replicate 1 |
| --- | --- | --- | --- |
| Plpbp (pyridoxal phosphate binding protein) | 1.85 | enough cells in well | 233 |
| Wnt3a (WNT family member 3A) | -0.68 | enough cells in well | 184 |
| Cdipt (CDP-diacylglycerol--inositol 3-phosphatidyltransferase) | -0.11 | enough cells in well | 150 |
| Smndc1 (survival motor neuron domain containing 1) | – | fewer than 50 cells per well; well left out of calls | 222 |
| Zbtb37 (zinc finger and BTB domain containing 37) | 0.82 | enough cells in well | 236 |
| Ccl12 (C-C motif chemokine ligand 12) | – | fewer than 50 cells per well; well left out of calls | 202 |
| Ccl12 (C-C motif chemokine ligand 12) | 0.45 | enough cells in well | 213 |
| Fbxl3 (F-box and leucine-rich repeat protein 3) | -0.33 | enough cells in well | 216 |
| Prl3d1 (prolactin family 3, subfamily d, member 1) | 0.3 | enough cells in well | 146 |
| B530045E10Rik (RIKEN cDNA B530045E10 gene) | 0.86 | enough cells in well | 262 |
| Hgsnat (heparan-alpha-glucosaminide N-acetyltransferase) | 3.54 (active) | enough cells in well | 419 |
| Vps53 (VPS53 GARP complex subunit) | 0.01 | enough cells in well | 174 |
| Cdh6 (cadherin 6) | 3.54 (active) | enough cells in well | 532 |
| Exo5 (exonuclease 5) | -0.22 | enough cells in well | 163 |
